Out of some 400,000 compounds screened, about 13,000 (3.2%) were called active. The inconclusive results got no clear call from the source; some entries with a clear call stand among them for comparison. Calls come from the whole dose curve; as a rule, active = well fitted cell-killing curve with a large enough effect; inconclusive = small, poorly fitted or top-dose-only effect, or effect the other way; inactive = flat fitted curve, though single readings scatter. Where the call is inconclusive, the potency comes from a doubtful curve fit.
Test: qHTS assay for MDR1-selective chemotherapeutics: Primary screen using the drug-selected MDR subline cells KB-V1; note: nearly all actives have a fitted effect of over 60% in size
Conditions: KB-V1 MDR cells viability, CellTiter-Glo, 72 h; activity change, negative = cytotoxicity: at 46.1 µM (top of the series)
In short: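 KB-V1 cells (P-gp-expressing MDR subline of KB-3-1) in phenol-red-free DMEM with 10% FBS were exposed to library compounds over a concentration series for 72 h at 37 degrees C. Viability read by CellTiter-Glo luminescence; concentration-effect curves fitted after normalization.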
% is set by controls: 0 for no effect and ±100 for the full control effect; potency is the fitted concentration of half-maximal effect.

| SMILES | Potency | activity change, negative = cytotoxicity |
| --- | --- | --- |
| CC(C)CC(NC(N)=O)C(=O)NCc1ccc(Cl)cc1 (stereo unspecified) | inconclusive: 20.6 µM [rising, partial curve, poor fit] | – |
| Cc1ccc(C(=O)COC(=O)CNC(=O)c2ccco2)cc1 | – | inactive: 24.4% |
| C/C=C(/C)C(=O)O[C@@H]1[C@H](OC(=O)C=C(C)C)c2c(ccc3ccc(=O)oc23)OC1(C)C | inconclusive: 8.2 µM [cytotoxic, partial curve, poor fit] | – |
| COc1ccc(CNS(=O)(=O)c2ccc(N3CCCC3)cc2Br)cc1 | inconclusive: 29.1 µM [rising, single point] | – |
| CN(C)Cc1c(C(=O)N/N=C/c2cccc(OCc3c(F)cccc3Cl)c2)nnn1-c1nonc1N | inconclusive: 20.6 µM [cytotoxic, single point] | – |
| O=C(CNC(=O)c1cccc(Br)c1)N/N=C/c1cccs1 | inconclusive: 5.17 µM [rising, full curve] | – |
| O=C1NC2(CCCCC2)C(=O)N1c1ccccc1 | – | inactive: 0.575% |
| COc1ccc(C(=O)C[n+]2ccc(N(C)C)cc2)cc1 | – | inactive: 20.8% |
| COc1ccc(-c2csc(=Nc3ccccc3)n2CCO)cc1 | active: 7.31 µM | – |
| CC1CC(C)CN(C(=O)c2ccc3c(c2)OCCO3)C1 (stereo unspecified) | inconclusive: 20.6 µM [cytotoxic, partial curve] | – |
| CN(Cc1ccc(Cl)cc1)C(=O)c1cc(S(=O)(=O)N2CCOCC2)ccc1N1CCCC1 | inconclusive: 6.51 µM [cytotoxic, partial curve] | – |
| CCCc1cc(=S)n2c([nH]c3ccccc32)c1C#N | inconclusive: 20.6 µM [cytotoxic, single point] | – |
| CCN(CCCNC(=O)c1cn(CC)c2ccc(S(=O)(=O)N(C)C)cc2c1=O)c1cccc(C)c1 | active: 16.4 µM | – |
| Cc1ccc(-c2nc(S(=O)(=O)c3ccccc3)c(SCC(=O)NCC3CCCO3)o2)cc1 (stereo unspecified) | – | inactive: -22.1% |
| CCC1CCC/C1=N\NC(=O)c1cc(C)[nH]n1 (stereo unspecified) | – | inactive: -5.12% |
| C=C(C)C1CCC(C)=C1CC(C)(C)/C=N\n1cnnc1 (stereo unspecified) | active: 14.6 µM | – |
| O=C(CCNC(=O)c1ccc(Br)cc1)NC1CCCc2ccccc21 (stereo unspecified) | inconclusive: 9.2 µM [cytotoxic, partial curve] | – |
| Oc1ccccc1/C=N/NC(=S)NCCc1ccccc1 | inconclusive: 18.4 µM [cytotoxic, single point] | – |
| Cc1cc(C)c(-c2cc(NC(=O)CSc3nncn3C)n(-c3ccccc3)n2)cc1C | – | inactive: -28.1% |
| Cc1nc(NC(=O)c2ccccc2)sc1-c1cc(C(=O)N2CCOCC2)nn1CCO | – | inactive: -8.87% |
| Nc1[nH]c(C(=O)c2ccccc2)c(-c2ccncc2)c1C(=O)NCc1cccc2ccccc12 | – | inactive: -26.5% |
| CCOC(=O)C(CC)Sc1nnc2n1C(C)(C)Cc1ccccc1-2 (stereo unspecified) | active: 16.4 µM | – |
| CC(=O)N1CCN(c2ccc(NC(=O)c3cccc(OCc4ccccc4)c3)cc2)CC1 | inconclusive: 14.6 µM [cytotoxic, partial curve] | – |
| COc1ccccc1N1CCN(C(=O)c2c(-c3c(F)cccc3Cl)noc2C)CC1 | inconclusive: 32.6 µM [cytotoxic, single point] | – |

| SMILES | Potency | activity change, negative = cytotoxicity |
| --- | --- | --- |
| Cc1c(C(N)=O)sc2ncn(CCOc3ccccc3)c(=O)c12 | inconclusive: 8.2 µM [cytotoxic, partial curve, poor fit] | – |
| CC(=O)Nc1ccc(S(=O)(=O)N[C@@H](C)C(=O)OCC(=O)c2ccc(C)cc2)cc1 | – | inactive: 15% |
| Cc1ccccc1OCC(=O)Nc1ccc(N2CCN(C(=O)c3ccco3)CC2)cc1 | active: 7.31 µM | – |
| CC1Cc2ccccc2N1CC(=O)NC(=O)NC1CCCC1 (stereo unspecified) | inconclusive: 9.2 µM [cytotoxic, partial curve] | – |
| COc1ccccc1CCc1nnc(CCC(=O)NC(C)Cc2ccsc2)o1 (stereo unspecified) | inconclusive: 10.3 µM [cytotoxic, partial curve] | – |
| Cc1cc2oc3ccc(NCCC4CCCN4C)cc3c(=O)c2cc1C (stereo unspecified) | inconclusive: 29.1 µM [cytotoxic, single point] | – |
| CC(C(=O)NCc1cccc(Br)c1)n1ncn2cccc2c1=O (stereo unspecified) | – | inactive: 2.13% |
| Cn1cnc2c(NCc3ccco3)ncnc21 | inactive | – |
| COc1ccc(C(=O)Nc2cc(Cl)cc(Cl)c2)c(OC)n1 | inconclusive: 18.4 µM [rising, partial curve, poor fit] | – |
| FC(F)Oc1ccc(N=C2SCC3CCCCN23)cc1 (stereo unspecified) | inconclusive: 18.4 µM [cytotoxic, single point] | – |
| CCSc1nc(O)cc(=O)n1CC | inconclusive: 20.6 µM [rising, single point] | – |
| NCCSc1c(-c2ccccc2)[nH]c2ccccc12 | – | inactive: 24.2% |
| C[C@H](CO)N1C[C@H](C)[C@H](CN(C)S(=O)(=O)c2cccc(F)c2)Oc2ncc(-c3cccc(C(=O)N(C)C)c3)cc2C1=O | – | inactive: 0.418% |
| CC1(C(=O)NS(=O)(=O)c2ccccc2Cl)CCN1C(=O)c1ccccc1CCc1ccccc1 (stereo unspecified) | – | inactive: 5.43% |
| Cc1ccccc1S(=O)(=O)Cc1ccc(C(=O)NCc2ccccc2Cl)o1 | inconclusive: 5.17 µM [cytotoxic, partial curve] | – |
| Cc1cc(OCc2ccccc2)ccc1/C(O)=C1/C(=O)C(=O)N(Cc2cccnc2)C1c1ccncc1 (stereo unspecified) | inconclusive: 14.6 µM [rising, partial curve, poor fit] | – |
| Cc1ccc(NC(=O)c2cc(CN3CCOCC3)on2)cc1Cl | – | inactive: 0.775% |
| Clc1ccc(CNC2CCN(Cc3ccccc3)CC2)cc1 | – | inactive: 17.8% |
| COc1ccc(N2CCN(CC(=O)NC(=O)NC(C)(C)C)CC2)cc1 | inconclusive: 18.4 µM [cytotoxic, single point] | – |
| Cc1ccc(C(=O)NC(=S)NNC(=O)c2ccccc2)cc1 | inconclusive: 4.61 µM [cytotoxic, partial curve, poor fit] | – |
| S=C(Cc1cccnc1)N1CCOCC1 | – | inactive: -14.5% |
| COC(=O)[C@@]12C[C@@H](CC(=O)NCC34CC5CC(CC(C5)C3)C4)C(=O)N(Cc3ccc4c(c3)OCO4)C1=CCC(C)(C)C2 | inconclusive: 20.6 µM [cytotoxic, single point] | – |
| Cn1cc(-c2cc3n(n2)CCC(=O)N3CCCC(=O)Nc2ccccc2Cl)c2ccccc21 | – | inactive: -15.5% |
| Nc1nc(N)c(-c2cccc(C(F)(F)F)c2)c(Cc2cccc(C(F)(F)F)c2)n1 | inconclusive: 3.66 µM [cytotoxic, full curve, poor fit] | – |

Three compounds from above, arranged by count of non-hydrogen atoms, smallest number first.

| SMILES | Potency | activity change, negative = cytotoxicity |
| --- | --- | --- |
| Cn1cnc2c(NCc3ccco3)ncnc21 | inactive | – |
| CC(=O)Nc1ccc(S(=O)(=O)N[C@@H](C)C(=O)OCC(=O)c2ccc(C)cc2)cc1 | – | inactive: 15% |
| C[C@H](CO)N1C[C@H](C)[C@H](CN(C)S(=O)(=O)c2cccc(F)c2)Oc2ncc(-c3cccc(C(=O)N(C)C)c3)cc2C1=O | – | inactive: 0.418% |

Shown as labelled records: three of the compounds above
CC(=O)N1CCN(c2ccc(NC(=O)c3cccc(OCc4ccccc4)c3)cc2)CC1
  Potency: inconclusive: 14.6 µM [cytotoxic, partial curve]
COc1ccccc1N1CCN(C(=O)c2c(-c3c(F)cccc3Cl)noc2C)CC1
  Potency: inconclusive: 32.6 µM [cytotoxic, single point]
Cc1c(C(N)=O)sc2ncn(CCOc3ccccc3)c(=O)c12
  Potency: inconclusive: 8.2 µM [cytotoxic, partial curve, poor fit]

Later entries:

| SMILES | Potency | activity change, negative = cytotoxicity |
| --- | --- | --- |
| CCOc1cccc(C(=O)Nc2ccc(N(CC)CC)cc2)c1 | – | inactive: -19.6% |
| CC(OC(=O)c1ccc(-n2cnnn2)cc1)C(=O)Nc1ccccc1F (stereo unspecified) | – | inconclusive: -64.4% |
| O=C(C[C@H]1C[C@H](C(=O)N2CCOCC2)[C@@]2(CCC3CCCC3)c3[nH]c4cc(-c5ccco5)ccc4c3CCN2C1=O)NCCc1ccccn1 | inconclusive: 23.1 µM [cytotoxic, single point] | – |
| Cc1cc(N2CCOCC2)ccc1/C=C1\NC(=O)N(Cc2ccccc2)C1=O | – | inactive: -3.26% |
| Cc1cc2c(cc1[N+](=O)[O-])NC(CNC(C)C)CC2 (stereo unspecified) | inconclusive: 0.206 µM [rising, partial curve, poor fit] | – |
| Cc1cc(O)c(Sc2ccccc2)c(=O)o1 | – | inconclusive: 10.8% |
| CCCCNC(=O)c1ccccc1NC(=O)c1ccc2c(c1)OCO2 | – | inactive: -11.2% |
| CSCCC(NC(=O)c1ccccc1Cl)C(=O)N1CCN(c2ccccn2)CC1 (stereo unspecified) | inconclusive: 16.4 µM [cytotoxic, partial curve] | – |
| CN(CCOc1ccc(-c2ccn(S(=O)(=O)c3cccc4ccccc34)n2)cc1)c1ccccn1 | inconclusive: 2.91 µM [cytotoxic, full curve, poor fit] | – |
| CC1CC(C)CN(c2ccc(-n3cnnn3)cc2[N+](=O)[O-])C1 (stereo unspecified) | inconclusive: 4.61 µM [cytotoxic, full curve] | – |
| Cc1nn(CC(C)C(=O)N2CCN(S(=O)(=O)c3ccc(Cl)cc3)CC2)c(C)c1C (stereo unspecified) | active: 20.6 µM | – |
| CN(C)c1ccc(/C=N/NC(=O)c2cc(-c3ccc4c(c3)OCO4)n[nH]2)cc1 | inconclusive: 18.4 µM [cytotoxic, single point] | – |
| COc1ccc(-n2ccnc2SCC(=O)NCc2ccccc2)c(OC)c1 | inconclusive: 10.3 µM [cytotoxic, partial curve] | – |
| CCc1cccc(CC)c1NC(=O)C1CSC2(C)CCC(=O)N12 (stereo unspecified) | inconclusive: 5.8 µM [cytotoxic, full curve] | – |
| O=C1c2ccccc2C(=O)N1Cc1cc(-c2ccccc2Cl)no1 | inconclusive: 20.6 µM [rising, partial curve, poor fit] | – |
| O=c1c2c3c(sc2n(CCN2CCCC2)c(=O)n1Cc1ccco1)CCCCC3 | inconclusive: 29.1 µM [cytotoxic, single point] | – |
| COc1ccc2sc(-c3ccccc3OC)c(-c3ccc(OC)c(F)c3)c2c1 | inconclusive: 29.1 µM [rising, partial curve, poor fit] | – |
| O=C(Nc1ccccc1N1CCCCC1)C1CCN(S(=O)(=O)c2ccccc2C(F)(F)F)CC1 | inconclusive: 23.1 µM [cytotoxic, single point] | – |
| COc1ccc(OC)c(S(=O)(=O)N2CCCC(C(=O)N3CCCC3)C2)c1 (stereo unspecified) | inconclusive: 18.4 µM [cytotoxic, single point] | – |
| O=C(CCCCCn1nnc2ccccc2c1=O)Nc1ccccc1Cl | inconclusive: 6.51 µM [cytotoxic, partial curve, poor fit] | – |
| COc1ccc(CCNC(=O)CSCC(=O)Nc2ccccc2)cc1OC | – | inactive: -0.419% |
| COCCNC(=O)c1ccccc1NC(=O)Cc1ccccc1[N+](=O)[O-] | – | inactive: 3.9% |
| O=C(N[C@@H]1CCC(=O)N(CC[C@H](Sc2ccccc2)c2ccccc2)CC1)OCc1ccccc1 | inconclusive: 8.2 µM [cytotoxic, partial curve, poor fit] | – |

Source: PubChem BioAssay AID1347076 (National Center for Advancing Translational Sciences (NCATS), 2019)
